# Data reported in PubChem BioAssay AID2685 (National Center for Advancing Translational Sciences (NCATS), 2010).
# Some of the results follow. These are further read-outs of the screen, such as a control signal, another cell line or another target. No call is given for them. Compounds called inactive in the main read-out are mostly missing here. Words in brackets tell the shape of the fitted curve; partial curves, single points and poor fits give uncertain potencies.
# Assay: qHTS Assay for Lipid Storage Modulators in Drosophila S3 Cells;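 on cell number change: cells counted by Cell Tracker Red CMTPX staining in the red channel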
# Details: BODIPY lipid droplet fluorescence, 18-24 h; for cell number change: measured here: cell count max response, cells fed with added oleic acid
# Procedure, shortened: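 Drosophila S3 cells loaded with oleic acid (400 uM, as added) and compounds at several concentrations; lipid droplets imaged by 488-nm laser-scanning cytometry, 500–530 nm intensity and object ratio to cell channel. Percent activity normalized to 20 uM Triacsin C.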
# [1] = measured here: lipid fluorescence (Fed channel) AC50, cells fed with added oleic acid
# [2] = measured here: cell number channel AC50, cells fed with added oleic acid
Structure (SMILES),cell number change,AC50 [1],AC50 [2]
O=C(NCc1cccs1)C1CCCN1C(=O)Nc1ccccc1[N+](=O)[O-] (configuration not stated),-2.17%,"29.1 µM [rising, single point]",–
CSCCC(NS(=O)(=O)c1ccc(Cl)cc1)C(=O)OCc1c(Cl)cccc1Cl (configuration not stated),-66.7%,–,"1.64 µM [falling, partial curve]"
O=C1NC(=O)C2(COC(c3cccc([N+](=O)[O-])c3)OC2)S1 (configuration not stated),-7.04%,"0.731 µM [falling, full curve]","0.259 µM [falling, full curve, poor fit]"
COc1ccccc1N1CCN(C(=O)c2cccc(C(=O)N3CCN(c4ccccc4OC)CC3)c2)CC1,15.5%,–,–
Cc1cc(/C=N/n2cnnc2)c(C)n1-c1ccc(OCc2ccc(Cl)cc2)cc1,-58%,"29.1 µM [falling, single point]","23.1 µM [falling, partial curve]"
FC(F)(F)Oc1ccc(NC(=S)Nc2ccccc2N2CCOCC2)cc1,2.27%,"6.51 µM [rising, single point]",–
COc1ccccc1C(=O)NC(=O)COC(=O)c1ccc(Br)o1,6.02%,–,–
O=C(CSC(=S)N1CCOCC1)Nc1nc(-c2ccccc2)c(-c2ccccc2)o1,-22.8%,"6.51 µM [falling, partial curve]",–
COc1c(C(O)CC(C)C)ccc2c1C(=O)OCc1cc(C)cc(O)c1O2 (configuration not stated),-9%,"0.291 µM [falling, full curve, poor fit]",–
CC(=O)NC(C)c1ccc(C(=O)CSc2nnc(C3CC3)n2C2CC2)cc1 (configuration not stated),-2.73%,"3.26 µM [rising, single point]",–
COc1cc(OC)cc(C(=O)Nc2ccc(Nc3ccccc3)cc2)c1,-3.88%,"29.1 µM [rising, single point]",–
c1ccc(Cn2nnc3c(N4CCCC4)ncnc32)cc1,-0.34%,–,–
O=C(Nc1ccccc1)C1=C[C@@H](c2ccccc2)C[C@@H](OCc2ccc(CO)cc2)O1,26.2%,"29.1 µM [rising, single point]",–
COc1ccc(-c2nnc(SCC(=O)NC3CCCCC3)n2N)cc1,2.01%,–,–
Cc1cc(=O)oc2c3c(ccc12)OC/C3=N/N,–,"0.731 µM [rising, single point]","1.03 µM [rising, partial curve]"
CCOC(=O)N1CCN(C(=O)CN(c2cccc(OC)c2)S(C)(=O)=O)CC1,-7.96%,"0.651 µM [falling, full curve]",–

# Record cards (already shown). Values in the order: cell number change	AC50 [1]	AC50 [2]
# FC(F)(F)Oc1ccc(NC(=S)Nc2ccccc2N2CCOCC2)cc1 is listed as 2.27%	6.51 µM [rising, single point]	–
# COc1cc(OC)cc(C(=O)Nc2ccc(Nc3ccccc3)cc2)c1 is listed as -3.88%	29.1 µM [rising, single point]	–

# Following part.

Structure (SMILES),cell number change,AC50 [1],AC50 [2]
Cc1cccnc1Nc1nc(-c2ccc(O)c(O)c2)cs1,-149%,–,"20.6 µM [falling, single point]"
CCN(CC(=O)Nc1cc(Cl)ccc1C)C(=O)COc1ccccc1F,-9.04%,"6.51 µM [rising, partial curve, poor fit]",–
CCC(=O)N1CCN(c2ccccc2NC(=O)c2cccs2)CC1,-13.9%,"29.1 µM [falling, single point]",–
Cc1cccc(C)c1OCC(O)CNC(C)c1ccccc1 (configuration not stated),–,"6.51 µM [falling, single point]",–
Cc1ccc2oc(C(=O)N3CCN(CC(=O)NC(C)C)CC3)c(C)c2c1,8.39%,"29.1 µM [rising, single point]",–
Cc1cccc2[nH]c(CN(C)C(=O)C3CCC(=O)N(C4CC4)C3)nc12 (configuration not stated),11.8%,"29.1 µM [rising, single point]",–
CSc1nc2ccccc2n1CC(=O)Nc1cc(C(F)(F)F)ccc1N1CCOCC1,–,–,"2.06 µM [rising, partial curve]"
CC(C)(C)C(=O)Nc1ccc(C(=O)Nc2cccc(Oc3ccc(C(=O)O)c(C(=O)O)c3)c2)cc1,-24.3%,"9.2 µM [rising, partial curve]",–
CC12CCC(C(=O)NNC(=O)c3ccc(Br)cc3)(OC1=O)C2(C)C (configuration not stated),–,"29.1 µM [rising, single point]",–
O=C(Nc1ccc(Oc2ccccc2)cc1)c1ccc(Cn2c(=O)[nH]c3ccsc3c2=O)cc1,-31.7%,"6.51 µM [falling, single point]","8.2 µM [falling, partial curve]"
Cc1c(NC(=O)C(C)OC(=O)CC2CC3CCC2C3)c(=O)n(-c2ccccc2)n1C (configuration not stated),-28.8%,"29.1 µM [falling, single point]",–
Cc1ccc(S(=O)(=O)/C(C#N)=C/c2c(N3CCN(C)CC3)nc3ccccn3c2=O)cc1,0.779%,"6.51 µM [falling, single point]",–
COc1ccc(/C(N)=N/OC(=O)Cc2ccc(C)cc2)cc1OC,-2.54%,–,–
O=C(Cn1nnc(-c2ccc(F)cc2)n1)OCC(=O)c1ccccc1,–,"6.51 µM [falling, partial curve, poor fit]","0.731 µM [falling, full curve]"
CC(=O)c1cn(CC(=O)NCc2ccc3c(c2)OCO3)c2ccccc12,-25.1%,"11.6 µM [falling, partial curve, poor fit]",–
